The assay concerns the target TFEB (Homo sapiens, UniProt P19484). The experiment in a line: Tfeb-Translocation Assay HEK-293T-oEX-Tfeb-GFP Cell Line. The note with it: read-out: TFEB Translocation EC50; HEK-293T-oEX-TFEB-GFP cells; translocation positive cells ratio. The protocol: Tfeb-Translocation Assay HEK-293T-oEX-Tfeb-GFP Cell Line
• 1). Added 2×10^6 cell into a T75 flask with 15 mL DiVEM medium (with 10% FBS, 1% PS, 1×GLUTAMAX, 1×MEM NEAA, 1×HEPES Buffer Solution and 5 ug/mL blasticidin). • 2). Culturing for 48-72 hours. Cells in logarithmic growth phase were taken for experiment. The other cells were passaged as described in step 1. • 3). Seeded 1×10^4 cells/30 μL/well into 384-well plate (BD 356663). Cultured overnight at 37° C. & 5% CO2 incubator. • 4). Note: Used cells <10 passage
• 1). Compounds were firstly diluted by DMSO to the stock needed (10 mM), and aliquoted and stored at −20° C. • 2). Took one aliquot each time and made 3-fold or 2-fold dilutions as indicated, total 10 doses plus one DMSO control well in the source plate. • 3). Added 150 or 90 nL/well compounds solution to the assay plate by ECHO and incubated for 6 or 18 hours respectively at 37° C. & 5% CO2 incubator.
• 1). Added 30 uL 8% PFA into the wells and incubated 20 min at room temperature. • 2). Discarded the medium, washed the wells twice with DPBS to eliminate foam and bubbles in the well.
• 1). […]
• 1). […] Calculated the EGFP average intensity inside the Nucleus region. • 3). […] Selected the Surrounding region of the nucleus and calculated the EGFP mean intensity of the region • 5). […]

Protein sequences, listed by entry. Tags and fused reporters are not part of them.
UniProt P19484, whole entry: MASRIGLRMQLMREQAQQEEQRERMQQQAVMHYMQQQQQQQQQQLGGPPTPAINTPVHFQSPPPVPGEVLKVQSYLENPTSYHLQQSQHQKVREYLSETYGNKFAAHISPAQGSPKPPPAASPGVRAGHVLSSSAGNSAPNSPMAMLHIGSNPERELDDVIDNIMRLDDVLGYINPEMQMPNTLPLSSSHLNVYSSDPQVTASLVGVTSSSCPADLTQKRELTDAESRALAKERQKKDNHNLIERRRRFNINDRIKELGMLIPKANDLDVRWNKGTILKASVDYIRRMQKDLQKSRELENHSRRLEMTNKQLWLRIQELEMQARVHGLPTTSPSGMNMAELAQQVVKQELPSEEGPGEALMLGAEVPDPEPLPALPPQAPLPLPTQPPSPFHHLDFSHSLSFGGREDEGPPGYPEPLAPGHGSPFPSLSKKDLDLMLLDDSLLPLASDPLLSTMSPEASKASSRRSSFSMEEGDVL

Structures are written as SMILES. The match of structure and compound is tentative.

A word on the EC50: it is the concentration that produces a half-maximal response. On to `O=C(NCc1ccccn1)c1cnc2ccn(Cc3ccccc3)c(=O)c2c1`, for which the EC50 was over 10 µM.
